Results from the supplement of paper PMC12067093, “Discovery and optimisation of a covalent ligand for TRIM25 and its application to targeted protein ubiquitination” (Chemical Science, 2025).
Some of the results follow.

Protein sequences, listed by entry. Tags and fused reporters are not part of them. Lines headed by an entry give the natural chain unless they say otherwise; changes in a name come on top.
UniProt Q9H871: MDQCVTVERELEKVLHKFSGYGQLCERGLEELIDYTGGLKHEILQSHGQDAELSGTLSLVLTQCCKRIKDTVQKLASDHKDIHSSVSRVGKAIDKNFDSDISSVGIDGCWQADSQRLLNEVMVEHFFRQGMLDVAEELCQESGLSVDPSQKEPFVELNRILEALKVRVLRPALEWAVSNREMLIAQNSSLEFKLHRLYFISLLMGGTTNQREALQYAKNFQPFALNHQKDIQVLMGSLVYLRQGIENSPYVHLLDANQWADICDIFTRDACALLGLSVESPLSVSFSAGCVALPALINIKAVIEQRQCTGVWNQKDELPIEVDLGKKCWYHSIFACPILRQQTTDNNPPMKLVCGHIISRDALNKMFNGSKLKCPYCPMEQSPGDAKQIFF
UniProt P51606: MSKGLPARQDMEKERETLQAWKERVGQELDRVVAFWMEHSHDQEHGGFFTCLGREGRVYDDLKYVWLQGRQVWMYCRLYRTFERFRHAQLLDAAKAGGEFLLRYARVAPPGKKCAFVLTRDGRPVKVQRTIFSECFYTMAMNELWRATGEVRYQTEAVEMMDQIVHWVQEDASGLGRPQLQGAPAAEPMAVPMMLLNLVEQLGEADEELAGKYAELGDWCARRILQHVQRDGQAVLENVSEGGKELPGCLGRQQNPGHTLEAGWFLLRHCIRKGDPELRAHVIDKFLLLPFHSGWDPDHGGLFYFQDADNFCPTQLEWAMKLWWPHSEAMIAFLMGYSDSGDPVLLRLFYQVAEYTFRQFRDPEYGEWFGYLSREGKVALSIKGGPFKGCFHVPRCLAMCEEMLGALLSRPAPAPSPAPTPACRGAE
UniProt Q13127: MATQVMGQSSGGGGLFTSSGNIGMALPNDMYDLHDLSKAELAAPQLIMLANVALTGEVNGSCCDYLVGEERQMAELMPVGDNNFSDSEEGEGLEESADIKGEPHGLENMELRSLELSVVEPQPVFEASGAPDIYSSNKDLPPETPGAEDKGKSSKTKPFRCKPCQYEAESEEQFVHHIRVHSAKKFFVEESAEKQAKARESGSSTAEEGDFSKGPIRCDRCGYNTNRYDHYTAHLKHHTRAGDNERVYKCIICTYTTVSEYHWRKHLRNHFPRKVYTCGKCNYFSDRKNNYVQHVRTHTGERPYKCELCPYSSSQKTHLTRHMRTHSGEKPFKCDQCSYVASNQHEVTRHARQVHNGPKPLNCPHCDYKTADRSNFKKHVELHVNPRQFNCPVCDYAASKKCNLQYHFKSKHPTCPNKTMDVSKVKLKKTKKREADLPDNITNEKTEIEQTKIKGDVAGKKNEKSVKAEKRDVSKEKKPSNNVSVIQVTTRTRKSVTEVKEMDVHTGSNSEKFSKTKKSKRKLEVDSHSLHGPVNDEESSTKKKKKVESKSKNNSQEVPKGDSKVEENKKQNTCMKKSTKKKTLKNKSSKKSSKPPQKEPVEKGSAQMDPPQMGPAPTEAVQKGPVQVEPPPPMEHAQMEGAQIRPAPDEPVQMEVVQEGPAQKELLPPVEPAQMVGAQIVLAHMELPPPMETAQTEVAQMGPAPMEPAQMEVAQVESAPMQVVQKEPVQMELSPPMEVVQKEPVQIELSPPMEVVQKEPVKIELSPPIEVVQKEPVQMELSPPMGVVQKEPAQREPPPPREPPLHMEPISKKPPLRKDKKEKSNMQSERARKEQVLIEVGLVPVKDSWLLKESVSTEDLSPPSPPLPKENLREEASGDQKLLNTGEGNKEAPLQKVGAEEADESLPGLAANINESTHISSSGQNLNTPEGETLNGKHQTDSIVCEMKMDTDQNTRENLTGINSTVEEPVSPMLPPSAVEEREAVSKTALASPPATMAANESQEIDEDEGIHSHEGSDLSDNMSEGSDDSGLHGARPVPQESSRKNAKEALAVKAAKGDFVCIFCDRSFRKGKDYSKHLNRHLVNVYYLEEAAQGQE
UniProt P35249, whole entry, looked up: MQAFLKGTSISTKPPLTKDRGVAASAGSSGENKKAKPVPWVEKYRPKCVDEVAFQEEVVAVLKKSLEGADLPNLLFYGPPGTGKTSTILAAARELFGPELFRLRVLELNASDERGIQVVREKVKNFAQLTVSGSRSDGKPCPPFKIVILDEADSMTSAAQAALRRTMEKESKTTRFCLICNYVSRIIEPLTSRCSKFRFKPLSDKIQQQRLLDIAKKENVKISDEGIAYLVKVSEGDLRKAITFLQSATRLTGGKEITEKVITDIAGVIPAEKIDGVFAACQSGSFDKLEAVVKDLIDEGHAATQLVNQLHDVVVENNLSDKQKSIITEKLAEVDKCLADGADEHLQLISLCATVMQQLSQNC
UniProt Q9Y508: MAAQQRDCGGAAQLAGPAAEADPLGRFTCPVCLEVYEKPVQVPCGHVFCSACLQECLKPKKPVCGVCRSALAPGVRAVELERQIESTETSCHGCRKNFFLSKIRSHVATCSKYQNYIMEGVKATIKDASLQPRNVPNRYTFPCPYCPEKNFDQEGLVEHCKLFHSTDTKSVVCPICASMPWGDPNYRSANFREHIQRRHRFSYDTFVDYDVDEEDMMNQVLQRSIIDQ
UniProt Q6PJF5: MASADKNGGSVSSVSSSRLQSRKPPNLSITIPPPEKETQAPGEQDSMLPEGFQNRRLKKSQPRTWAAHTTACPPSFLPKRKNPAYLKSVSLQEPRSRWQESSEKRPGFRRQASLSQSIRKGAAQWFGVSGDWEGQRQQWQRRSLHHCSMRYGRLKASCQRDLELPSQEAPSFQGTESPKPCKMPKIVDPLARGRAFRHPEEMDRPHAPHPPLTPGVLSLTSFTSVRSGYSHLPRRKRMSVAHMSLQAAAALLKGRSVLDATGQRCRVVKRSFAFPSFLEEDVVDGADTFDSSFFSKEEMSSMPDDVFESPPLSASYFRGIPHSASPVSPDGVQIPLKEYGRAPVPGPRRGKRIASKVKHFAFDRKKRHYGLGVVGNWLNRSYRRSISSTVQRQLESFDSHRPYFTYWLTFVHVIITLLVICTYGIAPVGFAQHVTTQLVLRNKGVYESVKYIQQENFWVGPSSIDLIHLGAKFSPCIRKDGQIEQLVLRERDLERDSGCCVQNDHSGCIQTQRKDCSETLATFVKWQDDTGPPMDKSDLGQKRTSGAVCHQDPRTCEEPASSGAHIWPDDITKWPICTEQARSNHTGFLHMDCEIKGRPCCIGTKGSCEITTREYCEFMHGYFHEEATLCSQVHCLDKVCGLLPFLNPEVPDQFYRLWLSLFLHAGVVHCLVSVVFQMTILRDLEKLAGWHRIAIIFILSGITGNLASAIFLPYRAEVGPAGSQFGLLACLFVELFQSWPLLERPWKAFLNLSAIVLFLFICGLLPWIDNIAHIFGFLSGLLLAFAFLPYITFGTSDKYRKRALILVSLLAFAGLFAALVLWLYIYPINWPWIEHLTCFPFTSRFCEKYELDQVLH
UniProt Q13129: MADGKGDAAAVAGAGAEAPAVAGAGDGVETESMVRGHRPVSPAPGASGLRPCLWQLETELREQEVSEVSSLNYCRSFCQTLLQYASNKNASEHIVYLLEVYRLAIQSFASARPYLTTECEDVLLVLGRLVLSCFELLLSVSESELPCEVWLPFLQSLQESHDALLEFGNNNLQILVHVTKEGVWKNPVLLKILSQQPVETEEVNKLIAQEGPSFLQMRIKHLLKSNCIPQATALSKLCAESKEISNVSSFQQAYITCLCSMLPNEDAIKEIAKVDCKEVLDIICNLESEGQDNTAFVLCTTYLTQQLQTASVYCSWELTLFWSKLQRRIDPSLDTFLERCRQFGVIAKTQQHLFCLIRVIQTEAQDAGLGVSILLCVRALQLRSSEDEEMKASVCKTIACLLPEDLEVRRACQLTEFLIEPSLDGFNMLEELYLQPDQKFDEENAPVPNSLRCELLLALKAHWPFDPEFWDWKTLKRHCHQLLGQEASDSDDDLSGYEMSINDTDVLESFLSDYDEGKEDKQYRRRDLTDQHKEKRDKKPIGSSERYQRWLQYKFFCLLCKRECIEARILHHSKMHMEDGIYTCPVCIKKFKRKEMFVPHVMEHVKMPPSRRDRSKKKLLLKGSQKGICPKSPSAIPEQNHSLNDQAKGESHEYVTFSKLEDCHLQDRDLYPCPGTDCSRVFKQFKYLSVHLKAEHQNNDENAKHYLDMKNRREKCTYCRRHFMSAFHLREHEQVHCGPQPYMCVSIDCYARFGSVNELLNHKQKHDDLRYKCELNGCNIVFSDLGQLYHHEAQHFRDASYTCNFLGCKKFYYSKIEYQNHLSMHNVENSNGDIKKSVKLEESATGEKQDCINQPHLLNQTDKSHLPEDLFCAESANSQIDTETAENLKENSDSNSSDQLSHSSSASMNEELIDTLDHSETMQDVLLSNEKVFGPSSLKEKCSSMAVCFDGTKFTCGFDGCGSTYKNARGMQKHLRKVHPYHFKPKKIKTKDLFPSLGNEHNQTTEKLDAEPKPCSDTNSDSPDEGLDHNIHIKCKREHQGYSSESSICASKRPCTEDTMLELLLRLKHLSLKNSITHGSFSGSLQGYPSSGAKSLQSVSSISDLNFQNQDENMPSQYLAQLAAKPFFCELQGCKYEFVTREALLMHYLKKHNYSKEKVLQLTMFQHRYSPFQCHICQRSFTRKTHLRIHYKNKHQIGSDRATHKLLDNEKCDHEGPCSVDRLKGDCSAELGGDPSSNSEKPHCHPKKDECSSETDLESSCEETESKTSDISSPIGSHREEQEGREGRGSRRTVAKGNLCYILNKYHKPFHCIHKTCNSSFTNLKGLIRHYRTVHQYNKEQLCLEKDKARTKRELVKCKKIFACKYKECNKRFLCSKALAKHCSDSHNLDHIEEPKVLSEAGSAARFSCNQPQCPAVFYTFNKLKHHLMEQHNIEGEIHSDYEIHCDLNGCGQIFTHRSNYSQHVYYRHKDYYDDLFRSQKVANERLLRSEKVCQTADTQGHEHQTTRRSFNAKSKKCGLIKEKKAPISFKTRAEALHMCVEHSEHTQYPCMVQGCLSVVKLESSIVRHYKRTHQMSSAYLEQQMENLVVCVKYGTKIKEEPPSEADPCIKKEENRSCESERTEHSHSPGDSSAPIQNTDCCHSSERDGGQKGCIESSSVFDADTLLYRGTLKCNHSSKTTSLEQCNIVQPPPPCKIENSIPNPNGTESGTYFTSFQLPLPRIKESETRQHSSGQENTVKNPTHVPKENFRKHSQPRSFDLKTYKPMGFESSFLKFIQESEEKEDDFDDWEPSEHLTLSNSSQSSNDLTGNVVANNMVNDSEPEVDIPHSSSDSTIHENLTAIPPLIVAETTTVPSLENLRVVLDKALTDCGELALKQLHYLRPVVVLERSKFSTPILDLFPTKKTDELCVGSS
UniProt O94761: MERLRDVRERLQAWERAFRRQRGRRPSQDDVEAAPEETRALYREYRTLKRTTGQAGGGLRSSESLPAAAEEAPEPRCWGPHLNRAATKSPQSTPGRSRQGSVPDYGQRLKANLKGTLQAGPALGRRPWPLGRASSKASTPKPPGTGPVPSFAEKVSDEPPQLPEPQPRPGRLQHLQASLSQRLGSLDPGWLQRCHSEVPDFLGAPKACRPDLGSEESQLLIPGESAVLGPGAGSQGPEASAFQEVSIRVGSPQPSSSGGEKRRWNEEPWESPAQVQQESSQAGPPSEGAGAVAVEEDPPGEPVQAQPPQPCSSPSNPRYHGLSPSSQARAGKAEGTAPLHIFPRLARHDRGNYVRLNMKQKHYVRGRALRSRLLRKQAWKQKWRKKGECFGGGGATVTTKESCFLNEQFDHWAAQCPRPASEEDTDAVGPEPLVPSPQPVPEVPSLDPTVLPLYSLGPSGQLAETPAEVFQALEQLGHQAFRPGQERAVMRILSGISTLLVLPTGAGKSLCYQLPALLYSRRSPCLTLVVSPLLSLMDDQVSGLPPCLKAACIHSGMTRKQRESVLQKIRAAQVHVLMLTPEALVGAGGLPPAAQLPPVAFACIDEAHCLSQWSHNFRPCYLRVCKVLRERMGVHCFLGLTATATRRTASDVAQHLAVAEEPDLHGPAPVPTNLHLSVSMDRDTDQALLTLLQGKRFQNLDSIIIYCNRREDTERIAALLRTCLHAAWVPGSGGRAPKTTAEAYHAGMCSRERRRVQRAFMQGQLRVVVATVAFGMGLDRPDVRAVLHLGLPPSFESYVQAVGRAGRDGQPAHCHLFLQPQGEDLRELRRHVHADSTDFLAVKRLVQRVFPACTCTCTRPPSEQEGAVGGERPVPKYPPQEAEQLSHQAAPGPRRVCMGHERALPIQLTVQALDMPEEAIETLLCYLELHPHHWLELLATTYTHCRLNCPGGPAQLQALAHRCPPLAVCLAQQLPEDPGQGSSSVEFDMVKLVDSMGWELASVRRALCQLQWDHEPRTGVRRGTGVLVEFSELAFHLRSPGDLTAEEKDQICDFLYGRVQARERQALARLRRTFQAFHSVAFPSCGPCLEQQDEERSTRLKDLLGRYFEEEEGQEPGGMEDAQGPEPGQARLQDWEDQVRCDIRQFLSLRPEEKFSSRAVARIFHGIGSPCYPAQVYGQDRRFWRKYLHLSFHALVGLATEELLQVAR

Compound: CC1Cc2ccccc2N1C(=O)C1CCCN(C1)C(=O)CCl (mixture of isomers) [TRIM25 ligand 11 (diastereomer mixture)]
Assay: probe-labelled cysteine peptide fold change vs DMSO (competition) (log2 fold change); higher = less target engagement (more negative = stronger competition)
Conditions: 10 µM; THP-1; incubation time: 4 h
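Further: competitive chemoproteomic profiling in live THP-1 cells with an iodoacetamide desthiobiotin (IA-DTB) probe, comparing probe-labelled peptide intensities in compound-treated cells against DMSO-treated controls.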

| Target | probe-labelled cysteine peptide fold change |
| --- | --- |
| RHOT1_Q8IXI2_421_CNVIGVK (UniProt Q8IXI2) | -0.112 |
| RNF123_Q5XPI4_1277_ACINQHLMNNK (UniProt Q5XPI4) | -0.00143 |
| RECQL5_O94762_188_LGHAPCVALTATATPQVQEDVFAALHLK (UniProt O94762) | -0.174 |
| RMND5A_Q9H871_4_MDQCVTVER (UniProt Q9H871) | 0.105 |
| RENBP_P51606_400_CLAMCEEMLGALLSR (UniProt P51606) | 0.209 |
| REST_Q13127_945_HQTDSIVCEMK (UniProt Q13127) | -0.0339 |
| RELA_Q04206_109_CIHSFQNLGIQCVK (UniProt Q04206) | -0.0343 |
| RFC4_P35249_48_CVDEVAFQEEVVAVLKK (UniProt P35249) | -0.204 |
| RNF114_Q9Y508_64+67_KPVCGVCR (UniProt Q9Y508) | -0.0793 |
| RHBDF2_Q6PJF5_181_DLELPSQEAPSFQGTESPKPCK (UniProt Q6PJF5) | -0.164 |
| RDH14_Q9HBH5_97_QAAECGPEPGVSGVGELIVR (UniProt Q9HBH5) | 0.0397 |
| RNF114_Q9Y508_160_NFDQEGLVEHCK (UniProt Q9Y508) | 0.0772 |
| RELA_Q04206_160_LCFQVTVR (UniProt Q04206) | -0.145 |
| REPIN1_Q9BWE0_433+436_VHSGERPFACEECGR (UniProt Q9BWE0) | 0.371 |
| RDH11_Q8TC12_33_MLSSGVCTSTVQLPGK (UniProt Q8TC12) | 0.0781 |
| RECQL_P46063_321_YKGQSGIIYCFSQK (UniProt P46063) | -0.364 |
| REPS1_Q96D71_344_DGALTLDEFCAAFHLVVAR (UniProt Q96D71) | 0.0481 |
| RING1_Q06587_48+51_SLHSELMCPICLDMLK (UniProt Q06587) | 0.0435 |

7 entries from above in a different format:
Target,probe-labelled cysteine peptide fold change
RMND5A_Q9H871_4_MDQCVTVER (UniProt Q9H871),0.105
RENBP_P51606_400_CLAMCEEMLGALLSR (UniProt P51606),0.209
REST_Q13127_945_HQTDSIVCEMK (UniProt Q13127),-0.0339
RELA_Q04206_109_CIHSFQNLGIQCVK (UniProt Q04206),-0.0343
RFC4_P35249_48_CVDEVAFQEEVVAVLKK (UniProt P35249),-0.204
RNF114_Q9Y508_64+67_KPVCGVCR (UniProt Q9Y508),-0.0793
RHBDF2_Q6PJF5_181_DLELPSQEAPSFQGTESPKPCK (UniProt Q6PJF5),-0.164

Next entries:

| Target | probe-labelled cysteine peptide fold change |
| --- | --- |
| RECQL_P46063_606_AESSQTCHSEQGDK (UniProt P46063) | 0.0906 |
| RLF_Q13129_663_LEDCHLQDR (UniProt Q13129) | 0.175 |
| RECQL_P46063_321_GQSGIIYCFSQK (UniProt P46063) | 0.0322 |
| RNF121_Q9H920_251_LSCNHVFHEFCIR (UniProt Q9H920) | 0.541 |
| RFC5_P40937_73_TSTILACAK (UniProt P40937) | -0.0102 |
| RECK_O95980_902_ALQIEACNK (UniProt O95980) | 0.173 |
| RFTN1_Q14699_211_PGTGDVCSAPAGR (UniProt Q14699) | -0.0231 |
| RLF_Q13129_851_QDCINQPHLLNQTDK (UniProt Q13129) | -0.0126 |
| RIPK3_Q9Y572_365_KCPSLTK (UniProt Q9Y572) | 0.0674 |
| RGS14_O43566_183_ECLLAEAEGRPLREPGSSR (UniProt O43566) | -0.0379 |
| RMDN3_Q96TC7_288_AYSDMCELTEEVSEKK (UniProt Q96TC7) | -0.187 |
| RMND5A_Q9H871_328_CWYHSIFACPILR (UniProt Q9H871) | -0.0773 |
| RLF_Q13129_400_TIACLLPEDLEVR (UniProt Q13129) | 0.279 |
| RECQL4_O94761_1008_ALCQLQWDHEPR (UniProt O94761) | -0.0223 |
| RHOT2_Q8IXI1_504_SFAHCASVYK (UniProt Q8IXI1) | 0.00523 |
| RMND5A_Q9H871_308_QCTGVWNQK (UniProt Q9H871) | 0.00209 |
| RECQL_P46063_414_ADCILYYGFGDIFR (UniProt P46063) | 0.191 |
| RECQL4_O94761_897_RVCMGHER (UniProt O94761) | -0.133 |
